# Patent publication US9139532B2, “Pyrazolyl guanidine F1F0-atpase inhibitors and therapeutic uses thereof” (Lycera Corporation, priority 2010, dated 2015)
# Amino acid sequences for entries named in this document (tags omitted). A change or cut given only in a name is not applied to a line headed by its entry.
# UniProt P13621: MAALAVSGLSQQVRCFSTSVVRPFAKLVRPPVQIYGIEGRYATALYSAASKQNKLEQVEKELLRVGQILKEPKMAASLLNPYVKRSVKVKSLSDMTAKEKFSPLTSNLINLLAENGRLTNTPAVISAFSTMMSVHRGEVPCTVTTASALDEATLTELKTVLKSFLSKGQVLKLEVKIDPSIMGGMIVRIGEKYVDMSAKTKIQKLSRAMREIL
# At least one compound was matched to its structure with a doubt left.
# Target: T1, F1F0-ATPase (Bos taurus, UniProt P13621)
# T1 construct: from tissue
# Assay: Inhibition of F1F0-ATPase activity in synthesizing ATP
# Type: biochemical
# Conditions: inhibition of ATP synthesis by F1F0-ATPase; read-out: ATP Syn IC50
smiles,measurement,value
COC(=O)c1cc(N/C(=N\C(=O)c2ccc(C(F)(F)F)cc2)NC(C)(C)C)[nH]n1 [Compound A-339],IC50,10 µM
